Values quoted from earlier work as cited in patent publication EP1022029A1, “NOOTROPIC AGENT” (priority 1997, dated 1999).
At least one read-out could not be matched to a standard name with certainty.

Settings: male mouse, perorally; cited from earlier work

Cc1cccc(C)c1NC(=O)CN1CCCC1=O [nefiracetam, 2-oxo-1-pyrrolidinylacetic acid 2,6-dimethylanilide]
acute toxicity: 2,005 mg/kg
